According to publication PMC7910438, “The TUTase URT1 connects decapping activators and prevents the accumulation of excessively deadenylated mRNAs to avoid siRNA biogenesis” (Nature Communications, 2021):
Results are given in words; binding and its absence hold for the method and conditions named. For some assays here: Binding seen in cells or lysates may run through a third protein. Some entries that bind do so weakly or less than the wild type. Where a sequence is shown, tags or fusion partners need not be part of it.

T1: 6His-GST-m1URT1 (Arabidopsis thaliana) (UniProt O64642)
T1 sequence: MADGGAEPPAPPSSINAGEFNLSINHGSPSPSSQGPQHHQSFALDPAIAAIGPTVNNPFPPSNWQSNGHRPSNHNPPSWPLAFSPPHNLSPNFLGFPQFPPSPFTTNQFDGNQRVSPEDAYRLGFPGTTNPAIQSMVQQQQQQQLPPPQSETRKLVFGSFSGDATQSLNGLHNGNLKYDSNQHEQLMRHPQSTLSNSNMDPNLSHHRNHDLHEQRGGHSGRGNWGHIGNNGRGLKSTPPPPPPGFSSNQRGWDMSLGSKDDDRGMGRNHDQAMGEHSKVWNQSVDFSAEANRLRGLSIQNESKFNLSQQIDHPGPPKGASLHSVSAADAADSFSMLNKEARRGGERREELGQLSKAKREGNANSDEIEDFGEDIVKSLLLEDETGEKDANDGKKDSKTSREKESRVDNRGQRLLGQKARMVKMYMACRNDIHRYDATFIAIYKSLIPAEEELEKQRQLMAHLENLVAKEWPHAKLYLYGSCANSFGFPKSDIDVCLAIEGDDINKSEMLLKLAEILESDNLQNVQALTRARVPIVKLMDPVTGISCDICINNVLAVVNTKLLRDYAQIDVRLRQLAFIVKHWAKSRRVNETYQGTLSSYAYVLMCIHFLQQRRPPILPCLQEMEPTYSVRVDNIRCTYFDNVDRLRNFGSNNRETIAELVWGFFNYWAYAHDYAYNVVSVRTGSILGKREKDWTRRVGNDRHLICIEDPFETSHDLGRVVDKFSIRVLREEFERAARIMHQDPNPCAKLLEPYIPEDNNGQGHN

T2: DCP5 tagged with GFP (Arabidopsis thaliana) (UniProt Q9C658)
T2 sequence: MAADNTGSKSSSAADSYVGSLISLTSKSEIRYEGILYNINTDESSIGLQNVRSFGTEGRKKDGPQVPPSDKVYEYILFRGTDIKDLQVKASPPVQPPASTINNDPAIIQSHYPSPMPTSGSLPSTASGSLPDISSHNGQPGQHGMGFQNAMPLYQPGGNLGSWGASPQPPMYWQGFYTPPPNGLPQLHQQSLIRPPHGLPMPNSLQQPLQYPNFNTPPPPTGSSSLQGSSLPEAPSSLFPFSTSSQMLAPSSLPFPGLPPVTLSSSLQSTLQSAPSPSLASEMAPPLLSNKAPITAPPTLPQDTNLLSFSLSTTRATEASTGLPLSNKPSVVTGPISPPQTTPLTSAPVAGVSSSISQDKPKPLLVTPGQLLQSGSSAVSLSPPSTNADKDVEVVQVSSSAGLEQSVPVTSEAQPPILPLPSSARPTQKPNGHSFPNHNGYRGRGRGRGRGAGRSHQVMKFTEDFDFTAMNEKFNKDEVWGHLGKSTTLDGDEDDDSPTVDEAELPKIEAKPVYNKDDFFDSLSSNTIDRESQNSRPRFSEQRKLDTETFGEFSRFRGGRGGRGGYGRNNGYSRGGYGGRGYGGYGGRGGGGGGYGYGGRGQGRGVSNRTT


Legend:
[1] = biological target: T1, 6His-GST-m1URT1 (Arabidopsis thaliana); experiment: pull-down; GST pull-down on glutathione sepharose; 10 pmol of each purified protein in 500 µl of 20 mM MOPS pH 7.2, 100 mM KCl, 15% glycerol, 0.1% Tween 20 with 100 ng/µl RNase A, 4 °C; SDS-PAGE, SYPRO Ruby; both purified
[2] = biological target: T2, DCP5 tagged with GFP (Arabidopsis thaliana); experiment: co-IP; DCP5 tagged with GFP, expressed at endogenous levels, as bait; URT1 detected (Supplementary Fig. 2a); conditions not shown

binding [2]	Binder	binding [1]
–	6His-MBP-DCP5 (natural protein, Arabidopsis thaliana, UniProt Q9C658 1-611, looked up, DECAPPING 5 (DCP5), Arabidopsis thaliana, AT1G26110; amplified from cDNA; source: E. coli BL21 DE3, purified; not shown: 6His, N-terminal, kept; MBP, N-terminal, kept) MAADNTGSKSSSAADSYVGSLISLTSKSEIRYEGILYNINTDESSIGLQNVRSFGTEGRKKDGPQVPPSDKVYEYILFRGTDIKDLQVKASPPVQPPASTINNDPAIIQSHYPSPMPTSGSLPSTASGSLPDISSHNGQPGQHGMGFQNAMPLYQPGGNLGSWGASPQPPMYWQGFYTPPPNGLPQLHQQSLIRPPHGLPMPNSLQQPLQYPNFNTPPPPTGSSSLQGSSLPEAPSSLFPFSTSSQMLAPSSLPFPGLPPVTLSSSLQSTLQSAPSPSLASEMAPPLLSNKAPITAPPTLPQDTNLLSFSLSTTRATEASTGLPLSNKPSVVTGPISPPQTTPLTSAPVAGVSSSISQDKPKPLLVTPGQLLQSGSSAVSLSPPSTNADKDVEVVQVSSSAGLEQSVPVTSEAQPPILPLPSSARPTQKPNGHSFPNHNGYRGRGRGRGRGAGRSHQVMKFTEDFDFTAMNEKFNKDEVWGHLGKSTTLDGDEDDDSPTVDEAELPKIEAKPVYNKDDFFDSLSSNTIDRESQNSRPRFSEQRKLDTETFGEFSRFRGGRGGRGGYGRNNGYSRGGYGGRGYGGYGGRGGGGGGYGYGGRGQGRGVSNRTT	no binding (tested: 10 pmol of each protein in 500 µl)
binds	URT1 (endogenous) (enzyme, UniProt O64642 1-764) MADGGAEPPAPPSSINAGEFLLSILHGSPSPSSQGPQHHQSFALDPAIAAIGPTVNNPFPPSNWQSNGHRPSNHNPPSWPLAFSPPHNLSPNFLGFPQFPPSPFTTNQFDGNQRVSPEDAYRLGFPGTTNPAIQSMVQQQQQQQLPPPQSETRKLVFGSFSGDATQSLNGLHNGNLKYDSNQHEQLMRHPQSTLSNSNMDPNLSHHRNHDLHEQRGGHSGRGNWGHIGNNGRGLKSTPPPPPPGFSSNQRGWDMSLGSKDDDRGMGRNHDQAMGEHSKVWNQSVDFSAEANRLRGLSIQNESKFNLSQQIDHPGPPKGASLHSVSAADAADSFSMLNKEARRGGERREELGQLSKAKREGNANSDEIEDFGEDIVKSLLLEDETGEKDANDGKKDSKTSREKESRVDNRGQRLLGQKARMVKMYMACRNDIHRYDATFIAIYKSLIPAEEELEKQRQLMAHLENLVAKEWPHAKLYLYGSCANSFGFPKSDIDVCLAIEGDDINKSEMLLKLAEILESDNLQNVQALTRARVPIVKLMDPVTGISCDICINNVLAVVNTKLLRDYAQIDVRLRQLAFIVKHWAKSRRVNETYQGTLSSYAYVLMCIHFLQQRRPPILPCLQEMEPTYSVRVDNIRCTYFDNVDRLRNFGSNNRETIAELVWGFFNYWAYAHDYAYNVVSVRTGSILGKREKDWTRRVGNDRHLICIEDPFETSHDLGRVVDKFSIRVLREEFERAARIMHQDPNPCAKLLEPYIPEDNNGQGHN	–
